Measurements taken from paper PMC10516749.

Target: T1, FBXO28-Flag-Myc (pCMV6-FBXO28-Myc-Flag) (UniProt Q9NVF7)
T1 sequence: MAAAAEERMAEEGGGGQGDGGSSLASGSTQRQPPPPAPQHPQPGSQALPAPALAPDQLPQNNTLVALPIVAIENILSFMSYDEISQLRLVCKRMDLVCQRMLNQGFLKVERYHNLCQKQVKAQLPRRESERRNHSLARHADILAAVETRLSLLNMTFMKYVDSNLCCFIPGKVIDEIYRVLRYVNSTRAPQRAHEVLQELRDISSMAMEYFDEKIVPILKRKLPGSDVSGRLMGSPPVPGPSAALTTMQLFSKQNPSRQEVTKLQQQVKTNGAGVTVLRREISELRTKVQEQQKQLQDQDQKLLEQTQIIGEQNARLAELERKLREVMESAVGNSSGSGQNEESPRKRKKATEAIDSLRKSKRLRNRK
Assay: co-IP; HEK293T cells transfected with FBXO28 and SNAI2 plasmids (wild type or mutants) for 48 h, MG132 20 uM 6 h before harvest, Triton X-100 buffer, IP and IB

binding: no binding
Substance: SNAI2 ΔZnF (deletion mutant lacking the Zinc finger domain) (domain or fragment)

No constants are given. Whether binding was seen depends on the method and setting. Binding seen in cells or lysates may run through a third protein. Tags and fused reporters may be left off the sequences shown.
